Test results reported in the supplement of paper PMC11006884.
The targets with a hit were mostly taken out for another list; the other results follow. This is a noisy data set. Only a part is listed here, and it is no random draw.

Protein sequences, listed by entry. Tags and fused reporters are not part of them. Lines headed by an entry give the natural chain unless they say otherwise; changes in a name come on top.
UniProt Q13242, whole entry, looked up: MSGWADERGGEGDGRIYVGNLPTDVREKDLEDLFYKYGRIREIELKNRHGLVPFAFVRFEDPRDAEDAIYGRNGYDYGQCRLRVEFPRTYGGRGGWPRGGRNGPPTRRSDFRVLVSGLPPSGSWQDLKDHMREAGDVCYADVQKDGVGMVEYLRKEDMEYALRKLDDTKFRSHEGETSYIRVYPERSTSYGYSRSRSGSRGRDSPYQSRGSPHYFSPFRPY
UniProt Q09666: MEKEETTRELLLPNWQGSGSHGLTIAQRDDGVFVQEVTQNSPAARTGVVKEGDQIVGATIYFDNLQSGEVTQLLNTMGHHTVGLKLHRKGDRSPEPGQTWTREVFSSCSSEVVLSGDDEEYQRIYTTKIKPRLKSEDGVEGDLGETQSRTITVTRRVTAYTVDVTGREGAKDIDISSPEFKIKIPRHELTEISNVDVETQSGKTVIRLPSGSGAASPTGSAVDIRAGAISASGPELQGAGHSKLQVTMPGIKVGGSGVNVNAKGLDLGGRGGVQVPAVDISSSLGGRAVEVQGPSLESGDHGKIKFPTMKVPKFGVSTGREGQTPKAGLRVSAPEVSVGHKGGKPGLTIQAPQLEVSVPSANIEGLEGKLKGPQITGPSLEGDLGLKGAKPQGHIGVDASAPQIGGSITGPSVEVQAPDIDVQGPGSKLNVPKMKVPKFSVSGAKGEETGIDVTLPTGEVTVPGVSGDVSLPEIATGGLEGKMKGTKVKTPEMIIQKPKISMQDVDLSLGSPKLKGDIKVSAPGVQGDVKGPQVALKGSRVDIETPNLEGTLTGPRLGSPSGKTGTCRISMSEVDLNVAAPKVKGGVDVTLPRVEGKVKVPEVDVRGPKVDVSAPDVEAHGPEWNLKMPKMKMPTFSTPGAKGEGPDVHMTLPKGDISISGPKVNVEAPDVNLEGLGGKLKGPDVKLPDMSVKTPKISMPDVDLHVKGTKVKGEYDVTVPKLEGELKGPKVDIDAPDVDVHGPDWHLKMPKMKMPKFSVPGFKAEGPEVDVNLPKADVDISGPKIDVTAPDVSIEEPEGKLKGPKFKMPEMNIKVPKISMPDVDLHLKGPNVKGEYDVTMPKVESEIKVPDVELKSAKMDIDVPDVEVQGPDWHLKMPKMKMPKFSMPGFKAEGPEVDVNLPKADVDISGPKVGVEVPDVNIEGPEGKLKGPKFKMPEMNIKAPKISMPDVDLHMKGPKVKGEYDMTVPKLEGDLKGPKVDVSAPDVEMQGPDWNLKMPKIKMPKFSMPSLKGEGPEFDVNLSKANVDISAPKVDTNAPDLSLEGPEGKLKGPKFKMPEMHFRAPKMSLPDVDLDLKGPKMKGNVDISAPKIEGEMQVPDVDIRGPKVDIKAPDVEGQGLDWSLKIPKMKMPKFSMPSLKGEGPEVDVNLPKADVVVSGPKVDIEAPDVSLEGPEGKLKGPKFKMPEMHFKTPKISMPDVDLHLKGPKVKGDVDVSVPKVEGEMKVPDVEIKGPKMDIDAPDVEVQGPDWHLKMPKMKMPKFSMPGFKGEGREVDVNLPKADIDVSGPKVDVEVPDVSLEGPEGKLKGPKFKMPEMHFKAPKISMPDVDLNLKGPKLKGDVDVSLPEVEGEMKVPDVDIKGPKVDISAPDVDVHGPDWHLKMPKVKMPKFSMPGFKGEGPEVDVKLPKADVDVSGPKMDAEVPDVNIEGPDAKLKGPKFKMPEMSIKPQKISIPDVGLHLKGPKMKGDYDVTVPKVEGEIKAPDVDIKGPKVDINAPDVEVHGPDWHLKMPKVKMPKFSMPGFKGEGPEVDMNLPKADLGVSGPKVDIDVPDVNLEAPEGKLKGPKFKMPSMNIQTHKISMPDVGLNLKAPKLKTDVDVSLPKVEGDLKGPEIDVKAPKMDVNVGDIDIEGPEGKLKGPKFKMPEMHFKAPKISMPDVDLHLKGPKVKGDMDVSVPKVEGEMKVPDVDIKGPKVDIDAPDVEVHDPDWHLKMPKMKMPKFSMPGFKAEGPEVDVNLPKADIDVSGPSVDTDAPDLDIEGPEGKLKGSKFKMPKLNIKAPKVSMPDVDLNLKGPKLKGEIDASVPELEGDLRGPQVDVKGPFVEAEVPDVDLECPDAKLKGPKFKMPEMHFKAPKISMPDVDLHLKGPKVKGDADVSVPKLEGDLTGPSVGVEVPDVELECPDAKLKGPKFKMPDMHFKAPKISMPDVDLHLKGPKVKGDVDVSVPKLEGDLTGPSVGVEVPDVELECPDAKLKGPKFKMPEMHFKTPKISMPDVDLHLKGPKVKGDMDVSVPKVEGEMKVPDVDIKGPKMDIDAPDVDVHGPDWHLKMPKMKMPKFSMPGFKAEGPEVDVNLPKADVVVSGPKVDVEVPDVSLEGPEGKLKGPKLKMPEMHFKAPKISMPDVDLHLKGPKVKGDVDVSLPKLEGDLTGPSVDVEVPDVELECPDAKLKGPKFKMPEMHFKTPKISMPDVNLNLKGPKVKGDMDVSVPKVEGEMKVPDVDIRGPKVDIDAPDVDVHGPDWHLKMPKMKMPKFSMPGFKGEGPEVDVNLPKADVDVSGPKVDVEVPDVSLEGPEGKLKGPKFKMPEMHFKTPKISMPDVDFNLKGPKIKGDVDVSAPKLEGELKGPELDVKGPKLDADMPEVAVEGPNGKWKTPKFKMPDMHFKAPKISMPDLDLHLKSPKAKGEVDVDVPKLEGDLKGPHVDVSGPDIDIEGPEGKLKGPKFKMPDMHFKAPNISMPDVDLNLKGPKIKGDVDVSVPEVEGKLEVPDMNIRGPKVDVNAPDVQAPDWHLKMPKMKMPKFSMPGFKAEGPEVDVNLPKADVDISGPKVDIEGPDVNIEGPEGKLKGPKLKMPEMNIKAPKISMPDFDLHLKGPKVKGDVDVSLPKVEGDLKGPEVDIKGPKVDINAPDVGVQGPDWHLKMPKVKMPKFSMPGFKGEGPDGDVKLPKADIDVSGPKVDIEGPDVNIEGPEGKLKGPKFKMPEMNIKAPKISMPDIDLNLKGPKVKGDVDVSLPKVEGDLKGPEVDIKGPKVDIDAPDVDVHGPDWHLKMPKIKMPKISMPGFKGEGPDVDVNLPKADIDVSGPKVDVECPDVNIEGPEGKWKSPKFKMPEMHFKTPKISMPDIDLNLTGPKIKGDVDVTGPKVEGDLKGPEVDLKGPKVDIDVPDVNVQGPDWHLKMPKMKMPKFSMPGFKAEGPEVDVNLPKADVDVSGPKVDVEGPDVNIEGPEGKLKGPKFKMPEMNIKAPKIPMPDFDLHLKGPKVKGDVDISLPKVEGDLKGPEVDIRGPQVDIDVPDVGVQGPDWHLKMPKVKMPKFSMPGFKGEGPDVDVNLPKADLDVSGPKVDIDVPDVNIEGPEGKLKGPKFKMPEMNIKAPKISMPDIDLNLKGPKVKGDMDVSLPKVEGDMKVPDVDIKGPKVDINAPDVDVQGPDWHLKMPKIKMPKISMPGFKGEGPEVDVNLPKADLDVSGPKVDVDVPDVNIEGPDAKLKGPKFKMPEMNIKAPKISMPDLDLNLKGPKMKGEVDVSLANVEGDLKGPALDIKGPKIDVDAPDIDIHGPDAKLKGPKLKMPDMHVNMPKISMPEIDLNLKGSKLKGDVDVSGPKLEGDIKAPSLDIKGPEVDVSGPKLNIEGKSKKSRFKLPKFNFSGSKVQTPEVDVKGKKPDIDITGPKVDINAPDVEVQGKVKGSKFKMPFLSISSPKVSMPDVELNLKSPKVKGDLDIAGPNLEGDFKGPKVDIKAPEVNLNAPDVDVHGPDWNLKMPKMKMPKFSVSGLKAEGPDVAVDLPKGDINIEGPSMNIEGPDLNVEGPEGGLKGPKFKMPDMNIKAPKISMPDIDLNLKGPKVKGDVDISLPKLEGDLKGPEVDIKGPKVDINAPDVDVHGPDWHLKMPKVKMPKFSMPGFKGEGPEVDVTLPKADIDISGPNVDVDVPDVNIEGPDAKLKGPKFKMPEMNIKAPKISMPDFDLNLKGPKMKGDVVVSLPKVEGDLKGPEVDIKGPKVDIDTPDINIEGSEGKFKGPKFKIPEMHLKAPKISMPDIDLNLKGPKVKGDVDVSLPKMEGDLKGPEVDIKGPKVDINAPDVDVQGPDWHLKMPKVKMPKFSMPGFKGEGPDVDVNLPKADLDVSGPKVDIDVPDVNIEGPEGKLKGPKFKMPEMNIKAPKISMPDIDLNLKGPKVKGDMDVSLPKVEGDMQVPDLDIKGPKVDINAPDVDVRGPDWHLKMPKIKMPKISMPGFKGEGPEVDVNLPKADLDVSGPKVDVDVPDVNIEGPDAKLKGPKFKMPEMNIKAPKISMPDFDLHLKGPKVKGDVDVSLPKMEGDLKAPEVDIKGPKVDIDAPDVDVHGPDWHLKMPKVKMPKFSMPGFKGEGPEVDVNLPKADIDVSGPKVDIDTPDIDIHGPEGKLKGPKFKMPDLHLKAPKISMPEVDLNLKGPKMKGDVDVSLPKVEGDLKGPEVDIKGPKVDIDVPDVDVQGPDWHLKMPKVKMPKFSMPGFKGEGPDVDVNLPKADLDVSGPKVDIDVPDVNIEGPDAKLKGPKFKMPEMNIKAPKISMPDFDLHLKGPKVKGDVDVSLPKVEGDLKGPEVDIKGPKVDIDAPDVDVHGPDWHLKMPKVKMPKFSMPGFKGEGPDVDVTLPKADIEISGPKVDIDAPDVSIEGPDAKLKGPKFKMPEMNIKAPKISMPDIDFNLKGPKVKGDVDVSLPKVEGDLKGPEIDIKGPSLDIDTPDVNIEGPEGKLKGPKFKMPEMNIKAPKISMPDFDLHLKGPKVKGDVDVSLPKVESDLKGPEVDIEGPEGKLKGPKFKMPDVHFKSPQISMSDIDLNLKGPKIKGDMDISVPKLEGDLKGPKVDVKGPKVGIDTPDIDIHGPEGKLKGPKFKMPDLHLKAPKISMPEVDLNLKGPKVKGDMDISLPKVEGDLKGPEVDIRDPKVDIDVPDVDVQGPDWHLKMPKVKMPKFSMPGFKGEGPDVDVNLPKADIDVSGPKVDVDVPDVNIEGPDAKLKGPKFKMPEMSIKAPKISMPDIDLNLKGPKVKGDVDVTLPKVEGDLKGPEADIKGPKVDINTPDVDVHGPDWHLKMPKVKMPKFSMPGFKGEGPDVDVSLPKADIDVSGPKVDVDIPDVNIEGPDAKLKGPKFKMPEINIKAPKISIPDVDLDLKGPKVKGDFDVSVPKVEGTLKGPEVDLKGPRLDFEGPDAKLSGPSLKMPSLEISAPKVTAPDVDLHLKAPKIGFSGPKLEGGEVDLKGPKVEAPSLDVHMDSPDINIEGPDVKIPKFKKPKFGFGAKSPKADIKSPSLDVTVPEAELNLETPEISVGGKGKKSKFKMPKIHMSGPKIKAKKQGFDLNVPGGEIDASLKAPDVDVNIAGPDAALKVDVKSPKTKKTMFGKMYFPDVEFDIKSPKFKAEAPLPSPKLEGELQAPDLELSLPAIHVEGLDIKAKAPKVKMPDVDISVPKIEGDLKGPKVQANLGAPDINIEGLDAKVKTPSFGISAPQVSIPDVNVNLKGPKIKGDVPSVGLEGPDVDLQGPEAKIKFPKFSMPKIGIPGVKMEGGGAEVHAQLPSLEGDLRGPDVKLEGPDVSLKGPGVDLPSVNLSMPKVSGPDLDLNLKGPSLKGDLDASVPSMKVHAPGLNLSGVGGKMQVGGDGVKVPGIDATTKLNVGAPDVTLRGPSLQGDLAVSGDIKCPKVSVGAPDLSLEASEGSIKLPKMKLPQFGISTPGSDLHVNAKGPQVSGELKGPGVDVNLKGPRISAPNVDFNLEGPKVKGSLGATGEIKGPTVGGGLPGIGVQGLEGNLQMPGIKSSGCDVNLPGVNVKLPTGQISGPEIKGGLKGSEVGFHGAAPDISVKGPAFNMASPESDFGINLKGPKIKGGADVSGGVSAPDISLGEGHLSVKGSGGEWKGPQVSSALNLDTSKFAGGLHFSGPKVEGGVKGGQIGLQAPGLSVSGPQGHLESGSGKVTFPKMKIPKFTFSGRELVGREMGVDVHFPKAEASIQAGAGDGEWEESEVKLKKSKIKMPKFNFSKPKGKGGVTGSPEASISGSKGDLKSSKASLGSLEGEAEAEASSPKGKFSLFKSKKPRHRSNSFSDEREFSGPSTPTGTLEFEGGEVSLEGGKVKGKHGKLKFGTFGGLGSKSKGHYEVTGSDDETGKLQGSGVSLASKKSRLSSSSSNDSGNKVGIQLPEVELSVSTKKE
UniProt Q13148, whole entry, looked up: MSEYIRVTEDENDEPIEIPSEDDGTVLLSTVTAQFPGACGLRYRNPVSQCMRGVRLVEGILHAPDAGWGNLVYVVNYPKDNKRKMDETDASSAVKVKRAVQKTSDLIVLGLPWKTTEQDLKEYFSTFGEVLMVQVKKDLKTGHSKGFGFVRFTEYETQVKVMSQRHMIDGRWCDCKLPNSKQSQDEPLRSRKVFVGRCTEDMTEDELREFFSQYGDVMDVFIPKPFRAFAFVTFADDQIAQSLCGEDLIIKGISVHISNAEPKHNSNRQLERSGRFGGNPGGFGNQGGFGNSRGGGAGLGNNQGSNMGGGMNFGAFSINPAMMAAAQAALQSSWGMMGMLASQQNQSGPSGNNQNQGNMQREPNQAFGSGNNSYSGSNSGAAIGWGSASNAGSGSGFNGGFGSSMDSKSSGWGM

Compound: COC(=O)/C=C/c1ccccc1 [methyl cinnamate]
Experiment: log2 ratio of iodoacetamide-alkyne labeling of the cysteine site, DMSO over compound (competition); higher = stronger covalent engagement of the cysteine by the compound, active = 1 or more
Settings: 500 µM; treatment time 1 h; system: HEK293T cell lysate
Summary of the method: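 Electrophile (500 µM) or vehicle was added to HEK293T lysate (2 mg/mL) for 1 h at ambient temperature before iodoacetamide alkyne labelling (1 h) and click coupling to sCIP-TMT reagents. After pooling, overnight trypsin digestion at 37 °C, streptavidin enrichment and acid elution, peptides were measured by Orbitrap Eclipse LC-MS/MS with FAIMS and quantified in FragPipe. Each cysteine's log2 competition ratio compares mean control-channel with mean compound-channel reporter intensity, control over compound. Data came from duplicate channels across three replicates, excluding cysteines quantified in only one replicate.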

log2 ratio of iodoacetamide-alkyne labeling, inactive:
UniProt Q13131_C185 0.414, CAMSAP2 C1416 (UniProt Q08AD1) 0.14, UniProt Q13242_C138 -0.121, NSUN2 C758 (UniProt Q08J23) 0.183, TCOF1 C1012 (UniProt Q13428) 0.229, GOLGA2 C794 (UniProt Q08379) 0.276, EP300 C1163 (UniProt Q09472) 0.124, TJP1 C1727 (UniProt Q07157) -0.0195, FKBP4 C396 (UniProt Q02790) 0.328, AHNAK C1967 (UniProt Q09666) 0.235, AKAP13 C683 (UniProt Q12802) 0.273, MTA1 C229 (UniProt Q13330) 0.111, UniProt Q09028_C203 0.107, GTF3C1 C1188 (UniProt Q12789) 0.0348, KLC1 C114 (UniProt Q07866) 0.179, TRAF2 C129 (UniProt Q12933) 0.206, AP1B1 C129 (UniProt Q10567) 0.261, TP53BP1 C1703 (UniProt Q12888) 0.31, AKAP12 C1479 (UniProt Q02952) 0.519, PSMD2 C459 (UniProt Q13200) -0.0843, UniProt Q13155_C23 -0.117, NCBP1 C44 (UniProt Q09161) -0.0746, AP1B1 C123 (UniProt Q10567) 0.0716, KLC1 C456 (UniProt Q07866) 0.42, UniProt Q07955_C16 0.263, PDCL C35 (UniProt Q13371) 0.0618, PRDX4 C51 (UniProt Q13162) 0.25, TARDBP C198 (UniProt Q13148) 0.0226, UBE2V1 C144 (UniProt Q13404) 0.216, EIF4G1 C662 (UniProt Q04637) 0.123, CSTF3 C536 (UniProt Q12996) 0.112, NSUN2 C321 (UniProt Q08J23) -0.0977, NOTCH2 C2085 (UniProt Q04721) -0.0033, RPL6 C44 (UniProt Q02878) 0.397, ILK C346 (UniProt Q13418) 0.184, G3BP1 C73 (UniProt Q13283) 0.243, PLOD1 C267 (UniProt Q02809) 0.104
